Assay results reported in patent US20190300616A1.
Results are given in words; binding and its absence hold for the method and conditions named. Some results given as binding are weak or reduced against the parent protein; the word gives no strength.

Sequences of proteins named here, by UniProt entry; tags and fusion partners are left off. Residues count along the entry.
UniProt P35225, residues 35-146: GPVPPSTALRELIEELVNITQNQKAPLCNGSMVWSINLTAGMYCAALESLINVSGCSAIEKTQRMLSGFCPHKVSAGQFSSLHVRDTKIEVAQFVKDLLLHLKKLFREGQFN

Assays:
[1] = molecular target: T1, Pngase F-treated rhIL13Rα2hFc (human) (UniProt Q14627); experiment: plate-bound ELISA, rhIL13Rα2 coated at 1 µg/ml, treated with Pngase F in native buffer
T1 sequence (N-linked glycosylation removed with Pngase F under native conditions, looked up): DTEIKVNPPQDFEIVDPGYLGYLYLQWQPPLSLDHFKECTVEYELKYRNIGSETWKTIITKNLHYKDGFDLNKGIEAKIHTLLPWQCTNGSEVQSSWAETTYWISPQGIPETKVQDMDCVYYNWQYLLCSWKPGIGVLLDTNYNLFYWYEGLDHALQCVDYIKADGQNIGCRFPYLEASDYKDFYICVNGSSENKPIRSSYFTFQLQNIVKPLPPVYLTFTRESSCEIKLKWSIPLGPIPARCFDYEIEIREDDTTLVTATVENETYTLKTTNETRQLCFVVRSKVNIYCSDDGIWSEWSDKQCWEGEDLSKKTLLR

[2] = molecular target: recombinant human IL13Rα2hFc chimera (human) (UniProt Q14627); experiment: competitive plate ELISA, rhIL-13 at 10 ng/ml on plate-bound rhIL13Rα2hFc, detection with a human IL-13 ELISA kit
[3] = molecular target: T1, Pngase F-treated rhIL13Rα2hFc (human); experiment: plate-bound ELISA, Pngase F-treated rhIL13Rα2hFc

Measured: binding

recombinant human IL-13 (from UniProt P35225 35-146) (ligand)
binds: [1] | [2] | [3]
